Measurements published in publication PMC10242005.
No constants are given. Whether binding was seen depends on the method and setting. For some assays here: Binding seen in cells or lysates may run through a third protein. Some binding calls cover weakened binding; strength is not graded here.

The chains behind the UniProt entries cited, without tags or fusion partners.
UniProt Q16659: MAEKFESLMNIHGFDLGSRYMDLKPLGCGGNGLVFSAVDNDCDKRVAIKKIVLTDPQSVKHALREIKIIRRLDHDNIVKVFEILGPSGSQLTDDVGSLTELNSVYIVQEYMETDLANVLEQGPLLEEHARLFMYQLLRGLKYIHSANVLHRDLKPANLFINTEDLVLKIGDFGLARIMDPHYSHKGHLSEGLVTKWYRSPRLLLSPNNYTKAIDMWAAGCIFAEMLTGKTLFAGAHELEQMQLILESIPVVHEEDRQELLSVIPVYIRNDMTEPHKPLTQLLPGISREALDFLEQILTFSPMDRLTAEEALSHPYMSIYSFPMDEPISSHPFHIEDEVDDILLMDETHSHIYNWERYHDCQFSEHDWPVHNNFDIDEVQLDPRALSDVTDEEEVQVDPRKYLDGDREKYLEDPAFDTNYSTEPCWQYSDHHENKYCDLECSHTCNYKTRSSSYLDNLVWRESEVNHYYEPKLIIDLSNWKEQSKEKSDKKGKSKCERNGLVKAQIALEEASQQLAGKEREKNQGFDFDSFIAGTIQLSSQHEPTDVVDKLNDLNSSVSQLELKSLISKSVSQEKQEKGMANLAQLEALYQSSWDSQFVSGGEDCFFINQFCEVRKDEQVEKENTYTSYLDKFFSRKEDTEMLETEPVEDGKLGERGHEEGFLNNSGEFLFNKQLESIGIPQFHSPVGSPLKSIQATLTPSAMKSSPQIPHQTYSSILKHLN
UniProt Q13574: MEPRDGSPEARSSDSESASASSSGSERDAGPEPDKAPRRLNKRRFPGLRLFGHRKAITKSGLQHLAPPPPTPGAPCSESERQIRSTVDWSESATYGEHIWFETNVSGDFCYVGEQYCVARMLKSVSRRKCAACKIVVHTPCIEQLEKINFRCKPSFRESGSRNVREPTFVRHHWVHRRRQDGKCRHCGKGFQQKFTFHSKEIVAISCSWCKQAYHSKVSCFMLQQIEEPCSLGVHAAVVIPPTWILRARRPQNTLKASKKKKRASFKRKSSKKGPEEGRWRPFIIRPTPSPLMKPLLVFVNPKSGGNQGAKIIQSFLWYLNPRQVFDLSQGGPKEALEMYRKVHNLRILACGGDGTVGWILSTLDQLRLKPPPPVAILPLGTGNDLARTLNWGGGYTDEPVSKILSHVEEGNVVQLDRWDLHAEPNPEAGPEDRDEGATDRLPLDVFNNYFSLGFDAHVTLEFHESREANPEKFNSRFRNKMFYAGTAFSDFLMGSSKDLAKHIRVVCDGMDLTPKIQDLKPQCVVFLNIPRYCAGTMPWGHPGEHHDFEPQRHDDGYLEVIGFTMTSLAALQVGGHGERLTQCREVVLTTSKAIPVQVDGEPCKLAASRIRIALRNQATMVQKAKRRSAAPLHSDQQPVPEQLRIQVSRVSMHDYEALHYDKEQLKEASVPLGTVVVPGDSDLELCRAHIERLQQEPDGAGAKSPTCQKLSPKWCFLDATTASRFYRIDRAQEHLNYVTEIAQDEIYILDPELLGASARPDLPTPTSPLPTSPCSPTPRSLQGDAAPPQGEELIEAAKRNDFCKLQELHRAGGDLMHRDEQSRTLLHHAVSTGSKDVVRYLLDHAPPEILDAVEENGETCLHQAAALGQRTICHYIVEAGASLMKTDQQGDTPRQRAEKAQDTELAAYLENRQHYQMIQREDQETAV

Columns and labels:
[1] = target: His6-ERK3-GST (WT, full length) (UniProt Q16659); test: co-IP; in vitro binding assay: 150 ng purified DGKζ with or without 200 ng purified ERK3 in EBC buffer, 1 h at 4°C, then ERK3 antibody on protein A beads; blot; both purified
[2] = target: endogenous ERK3 (NCI-H460 cells) (human (endogenous in NCI-H460)) (UniProt Q16659); test: co-IP; endogenous proteins in NCI-H460 lysate; ERK3 precipitated with anti-ERK3 antibody, rabbit IgG control; blot for DGKζ

With “GST-DGKζ (purchased) (from UniProt Q13574 1-928)” the binding [1] was “binds”.
With “endogenous DGKζ (NCI-H460 cells) (from UniProt Q13574 1-928)” the binding [2] was “binds”.
